*: point of attachment. DOTA = O=C(O)CN1CCN(CC(=O)O)CCN(CC(=O)*)CCN(CC(=O)O)CC1; NOTA = O=C(O)CN1CCN(CC(=O)O)CCN(CC(=O)*)CC1

Series [1] is described as follows: general procedure: Fmoc solid-phase peptide synthesis; 2-CTC Resin; HOBT/HBTU/DIEA. As to conditions: whole synthesis, scale of the general procedure 0.5 mmol.
A short description of series [2]: general procedure: Fmoc solid-phase peptide synthesis; 2-CTC resin; HOBT/HBTU/DIEA. As to conditions: whole synthesis, scale 0.5 mmol.

{NOTA}-DVINF-OH: the “final purity (method not given)” value in series [1] was 98.84%. For the same substance, in series [2], the crude mass was 427 mg and the isolated mass was determined as 30.52 mg.
Turning to {DOTA}-NDVIN-OH, the “final purity (method not given)” value in series [1] was determined as 97.97%.

Values taken from patent publication US20260014285A1 (HANGZHOU HEALTHYTIDE BIOTECHNOLOGY CO., LTD., priority 2022, published 2026).
